Test [1] concerns the target IGF2BP3 (human (endogenous in GC cells)) (UniProt O00425). The test is described as follows: co-IP; GC cells; precipitation with anti-IGF2BP3 or anti-HUR, Pierce Co-Immunoprecipitation Kit; also in cells transfected with NR_033928 siRNAs (less co-precipitate).
Test [2] has as its target HUR (human (endogenous in GC cells)) (UniProt Q15717). Described as above.

Protein sequences, listed by entry. Tags and fused reporters are not part of them.
UniProt O00425: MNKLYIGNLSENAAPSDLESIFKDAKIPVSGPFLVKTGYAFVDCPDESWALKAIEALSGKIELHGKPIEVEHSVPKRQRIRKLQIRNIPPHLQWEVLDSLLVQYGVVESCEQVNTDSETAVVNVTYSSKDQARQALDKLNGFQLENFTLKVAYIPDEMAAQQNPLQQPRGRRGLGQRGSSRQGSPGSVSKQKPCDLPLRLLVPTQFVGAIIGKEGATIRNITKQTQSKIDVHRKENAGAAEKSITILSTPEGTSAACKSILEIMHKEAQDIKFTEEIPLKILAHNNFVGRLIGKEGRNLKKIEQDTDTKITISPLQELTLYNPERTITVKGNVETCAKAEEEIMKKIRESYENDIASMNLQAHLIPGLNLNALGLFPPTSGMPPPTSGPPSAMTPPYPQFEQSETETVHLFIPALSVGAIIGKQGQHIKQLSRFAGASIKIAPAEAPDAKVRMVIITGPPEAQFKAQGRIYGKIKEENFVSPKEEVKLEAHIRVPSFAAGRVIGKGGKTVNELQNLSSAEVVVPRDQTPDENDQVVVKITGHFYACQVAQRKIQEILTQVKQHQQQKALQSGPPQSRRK
UniProt Q15717: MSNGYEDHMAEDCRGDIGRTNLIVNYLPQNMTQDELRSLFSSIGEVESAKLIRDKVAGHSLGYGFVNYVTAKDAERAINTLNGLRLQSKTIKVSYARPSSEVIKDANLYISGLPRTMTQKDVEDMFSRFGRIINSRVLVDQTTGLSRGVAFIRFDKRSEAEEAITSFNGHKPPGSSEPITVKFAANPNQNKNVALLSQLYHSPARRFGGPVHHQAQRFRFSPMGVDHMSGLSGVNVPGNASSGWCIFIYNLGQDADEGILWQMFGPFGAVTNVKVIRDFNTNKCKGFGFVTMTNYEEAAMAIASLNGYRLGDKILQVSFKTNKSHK

These are yes or no findings as the source states them, for the method shown. Binding seen in cells or lysates may run through a third protein. Some binding calls cover weakened binding; strength is not graded here.

Here are results for 2 substances from paper PMC10427642.

As for HUR (from UniProt Q15717 1-326), the binding entry in test [1] was “binds”.

Regarding IGF2BP3 (from UniProt O00425 1-579), the binding entry in test [2] is “binds”.
